The values that follow come from article PMC7477767.

By UniProt entry, the sequences of proteins in these tests, tags left out.
UniProt P35579: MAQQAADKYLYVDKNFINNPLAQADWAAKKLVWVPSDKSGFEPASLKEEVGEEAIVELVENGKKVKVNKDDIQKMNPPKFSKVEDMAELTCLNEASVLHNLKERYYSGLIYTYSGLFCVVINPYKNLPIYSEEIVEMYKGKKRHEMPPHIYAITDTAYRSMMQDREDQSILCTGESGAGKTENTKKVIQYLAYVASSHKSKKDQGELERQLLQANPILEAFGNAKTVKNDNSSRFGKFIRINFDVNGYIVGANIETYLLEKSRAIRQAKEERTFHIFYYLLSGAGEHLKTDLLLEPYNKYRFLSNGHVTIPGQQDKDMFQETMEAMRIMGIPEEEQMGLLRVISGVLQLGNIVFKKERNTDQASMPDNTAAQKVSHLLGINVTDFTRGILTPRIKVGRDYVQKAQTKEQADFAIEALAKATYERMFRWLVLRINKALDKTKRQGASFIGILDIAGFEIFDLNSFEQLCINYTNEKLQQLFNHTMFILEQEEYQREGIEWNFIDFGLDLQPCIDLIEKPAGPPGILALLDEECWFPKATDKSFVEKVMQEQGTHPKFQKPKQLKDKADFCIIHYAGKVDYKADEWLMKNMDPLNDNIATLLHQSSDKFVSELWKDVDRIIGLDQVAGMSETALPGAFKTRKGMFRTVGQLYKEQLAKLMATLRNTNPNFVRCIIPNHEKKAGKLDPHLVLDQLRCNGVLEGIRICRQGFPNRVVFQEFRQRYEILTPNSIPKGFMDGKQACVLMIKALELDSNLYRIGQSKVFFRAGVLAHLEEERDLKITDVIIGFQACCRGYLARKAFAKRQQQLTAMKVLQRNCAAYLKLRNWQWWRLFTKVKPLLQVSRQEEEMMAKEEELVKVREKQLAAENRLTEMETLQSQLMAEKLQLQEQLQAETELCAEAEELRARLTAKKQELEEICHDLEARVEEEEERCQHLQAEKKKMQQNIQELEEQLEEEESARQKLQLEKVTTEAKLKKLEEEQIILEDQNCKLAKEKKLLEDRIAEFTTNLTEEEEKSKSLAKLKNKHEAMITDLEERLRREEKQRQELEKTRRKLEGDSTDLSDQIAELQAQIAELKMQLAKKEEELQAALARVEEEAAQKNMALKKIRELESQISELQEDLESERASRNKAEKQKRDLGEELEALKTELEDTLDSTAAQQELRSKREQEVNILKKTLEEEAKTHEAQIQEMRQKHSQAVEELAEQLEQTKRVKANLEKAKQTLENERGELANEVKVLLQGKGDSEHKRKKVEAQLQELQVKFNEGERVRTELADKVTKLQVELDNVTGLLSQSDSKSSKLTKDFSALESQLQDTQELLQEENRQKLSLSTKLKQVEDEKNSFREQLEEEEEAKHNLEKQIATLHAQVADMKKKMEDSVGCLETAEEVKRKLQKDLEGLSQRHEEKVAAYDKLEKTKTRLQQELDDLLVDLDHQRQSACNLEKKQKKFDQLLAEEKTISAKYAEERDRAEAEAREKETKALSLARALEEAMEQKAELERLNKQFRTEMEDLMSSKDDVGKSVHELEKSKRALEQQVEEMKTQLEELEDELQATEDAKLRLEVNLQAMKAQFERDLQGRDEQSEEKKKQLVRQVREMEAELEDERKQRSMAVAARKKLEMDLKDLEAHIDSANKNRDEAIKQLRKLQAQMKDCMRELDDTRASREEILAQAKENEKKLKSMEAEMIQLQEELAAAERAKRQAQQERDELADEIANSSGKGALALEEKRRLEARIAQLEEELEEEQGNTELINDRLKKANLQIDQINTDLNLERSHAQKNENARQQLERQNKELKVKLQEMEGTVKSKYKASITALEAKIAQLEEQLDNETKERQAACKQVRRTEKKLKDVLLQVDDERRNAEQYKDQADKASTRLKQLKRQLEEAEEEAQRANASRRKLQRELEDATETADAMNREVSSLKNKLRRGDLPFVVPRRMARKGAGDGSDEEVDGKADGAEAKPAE

These are yes or no findings as the source states them, for the method shown. Binding seen in cells or lysates may run through a third protein. These calls come from enrichment with a bait or labelling near it, and not all partners need be listed. Where a sequence is shown, tags or fusion partners need not be part of it.

The test concerns the target T1, FLAG-tagged CRLF1 (Cytokine Receptor-Like Factor 1) (UniProt O75462).
T1 sequence: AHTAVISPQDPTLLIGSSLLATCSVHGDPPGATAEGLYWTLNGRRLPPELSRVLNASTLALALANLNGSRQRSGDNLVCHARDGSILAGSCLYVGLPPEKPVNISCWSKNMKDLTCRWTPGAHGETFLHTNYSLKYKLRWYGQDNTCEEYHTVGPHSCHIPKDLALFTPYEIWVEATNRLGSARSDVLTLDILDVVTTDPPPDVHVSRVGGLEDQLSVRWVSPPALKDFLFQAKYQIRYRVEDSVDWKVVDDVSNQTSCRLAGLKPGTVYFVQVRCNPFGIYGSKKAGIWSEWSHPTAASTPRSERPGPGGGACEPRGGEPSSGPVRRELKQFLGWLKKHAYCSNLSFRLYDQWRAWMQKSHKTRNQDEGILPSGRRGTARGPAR
The experiment in a line: affinity purification with mass spectrometry; FLAG pull-down: lysate in IP lysis buffer (150 mM NaCl; 1% NP-40), FLAG beads at 4°C overnight, five washes, elution with FLAG peptide, SDS-PAGE, silver staining, LC-MS of the bands; empty vector as control.

With “MYH9 (non-muscle myosin heavy-chain IIA protein), endogenous (from UniProt P35579 1-1960)”, the binding entry was “binds”.
